Test results: PMC10990277
No constants are given. Whether binding was seen depends on the method and setting. In cells and extracts the contact can be indirect. Here binding means that the protein was enriched with, or labelled near, the bait; the list need not be complete.

Sequences of proteins named here, by UniProt entry; tags and fusion partners are left off.
UniProt P0DTC4: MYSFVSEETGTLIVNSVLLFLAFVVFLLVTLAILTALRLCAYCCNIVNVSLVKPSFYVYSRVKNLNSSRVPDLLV
UniProt Q07157: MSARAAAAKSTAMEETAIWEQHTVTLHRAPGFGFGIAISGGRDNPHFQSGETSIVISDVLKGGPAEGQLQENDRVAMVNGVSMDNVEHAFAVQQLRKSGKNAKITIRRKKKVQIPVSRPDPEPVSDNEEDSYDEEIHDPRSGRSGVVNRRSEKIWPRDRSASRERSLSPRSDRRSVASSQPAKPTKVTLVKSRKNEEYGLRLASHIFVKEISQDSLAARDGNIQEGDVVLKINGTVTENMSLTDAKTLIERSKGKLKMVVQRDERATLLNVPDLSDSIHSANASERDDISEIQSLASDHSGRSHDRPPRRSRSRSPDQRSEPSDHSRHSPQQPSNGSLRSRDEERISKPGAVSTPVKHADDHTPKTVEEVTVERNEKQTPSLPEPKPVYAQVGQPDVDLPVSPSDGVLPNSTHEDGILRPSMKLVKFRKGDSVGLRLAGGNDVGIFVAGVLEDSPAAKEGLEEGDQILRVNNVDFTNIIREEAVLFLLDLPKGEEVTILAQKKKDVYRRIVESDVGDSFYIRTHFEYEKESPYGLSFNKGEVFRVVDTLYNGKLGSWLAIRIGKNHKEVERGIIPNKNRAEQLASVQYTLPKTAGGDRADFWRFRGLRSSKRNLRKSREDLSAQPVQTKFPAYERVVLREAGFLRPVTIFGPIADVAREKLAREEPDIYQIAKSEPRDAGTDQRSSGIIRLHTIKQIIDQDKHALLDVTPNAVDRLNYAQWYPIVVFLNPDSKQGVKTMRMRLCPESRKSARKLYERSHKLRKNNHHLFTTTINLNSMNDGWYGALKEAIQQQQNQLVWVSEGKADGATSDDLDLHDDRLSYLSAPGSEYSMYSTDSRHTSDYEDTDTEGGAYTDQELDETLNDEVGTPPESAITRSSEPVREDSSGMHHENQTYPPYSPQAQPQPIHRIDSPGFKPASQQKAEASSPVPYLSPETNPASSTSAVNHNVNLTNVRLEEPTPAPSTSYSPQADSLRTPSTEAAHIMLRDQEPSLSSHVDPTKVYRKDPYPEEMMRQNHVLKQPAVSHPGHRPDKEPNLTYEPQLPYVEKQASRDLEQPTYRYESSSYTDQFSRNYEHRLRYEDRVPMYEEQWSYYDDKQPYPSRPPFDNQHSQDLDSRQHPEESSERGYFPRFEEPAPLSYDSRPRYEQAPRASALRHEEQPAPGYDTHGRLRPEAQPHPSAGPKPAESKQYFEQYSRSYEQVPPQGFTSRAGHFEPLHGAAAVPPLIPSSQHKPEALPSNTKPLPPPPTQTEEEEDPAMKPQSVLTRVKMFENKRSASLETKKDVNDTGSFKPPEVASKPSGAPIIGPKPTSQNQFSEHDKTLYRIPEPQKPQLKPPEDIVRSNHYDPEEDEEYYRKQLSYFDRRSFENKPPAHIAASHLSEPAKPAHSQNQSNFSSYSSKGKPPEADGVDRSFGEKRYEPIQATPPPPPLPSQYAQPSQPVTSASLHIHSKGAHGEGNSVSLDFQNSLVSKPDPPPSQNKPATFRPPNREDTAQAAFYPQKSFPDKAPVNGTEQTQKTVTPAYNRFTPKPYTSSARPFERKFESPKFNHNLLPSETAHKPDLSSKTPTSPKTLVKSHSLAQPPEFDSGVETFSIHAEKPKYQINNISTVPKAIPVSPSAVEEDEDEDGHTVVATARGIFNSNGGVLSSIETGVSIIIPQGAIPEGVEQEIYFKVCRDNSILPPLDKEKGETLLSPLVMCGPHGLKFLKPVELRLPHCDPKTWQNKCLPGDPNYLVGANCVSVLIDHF

Key:
[1] = molecular target: E-HA/TurboID^Site4 (SARS-CoV-2) (UniProt P0DTC4); assay: proximity labelling
[2] = molecular target: E-HA/TurboID^Site3 (SARS-CoV-2) (UniProt P0DTC4); assay: proximity labelling

tight junction protein–1 (TJP1) (from UniProt Q07157 1-1748)
binding [1]: binds
binding [2]: binds
